For test [1], the target named is T1, humanised GPV of hGp5^KIN mice (human extracellular domain, mouse transmembrane and intracellular domain) (human; mouse) (UniProt P40197).
T1 sequence: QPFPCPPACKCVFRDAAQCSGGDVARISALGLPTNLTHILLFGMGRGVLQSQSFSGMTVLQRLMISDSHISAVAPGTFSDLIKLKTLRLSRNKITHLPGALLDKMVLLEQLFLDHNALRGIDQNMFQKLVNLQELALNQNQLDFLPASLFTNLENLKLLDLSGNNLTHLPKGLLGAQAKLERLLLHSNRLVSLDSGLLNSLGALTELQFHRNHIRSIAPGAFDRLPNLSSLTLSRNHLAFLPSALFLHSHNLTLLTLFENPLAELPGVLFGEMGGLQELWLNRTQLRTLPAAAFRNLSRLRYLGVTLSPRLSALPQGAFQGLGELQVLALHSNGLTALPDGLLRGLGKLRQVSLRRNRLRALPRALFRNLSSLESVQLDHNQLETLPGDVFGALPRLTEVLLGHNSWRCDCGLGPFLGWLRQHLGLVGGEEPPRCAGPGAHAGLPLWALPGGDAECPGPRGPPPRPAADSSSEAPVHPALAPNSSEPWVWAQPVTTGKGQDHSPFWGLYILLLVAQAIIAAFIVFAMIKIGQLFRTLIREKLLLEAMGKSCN
Description: flow cytometry of platelets from LUM11-injected hGp5^KIN mice.

Test [2] deals with T2, recombinant ectodomain of human GPV (rhGPV) (human) (UniProt P40197).
T2 sequence: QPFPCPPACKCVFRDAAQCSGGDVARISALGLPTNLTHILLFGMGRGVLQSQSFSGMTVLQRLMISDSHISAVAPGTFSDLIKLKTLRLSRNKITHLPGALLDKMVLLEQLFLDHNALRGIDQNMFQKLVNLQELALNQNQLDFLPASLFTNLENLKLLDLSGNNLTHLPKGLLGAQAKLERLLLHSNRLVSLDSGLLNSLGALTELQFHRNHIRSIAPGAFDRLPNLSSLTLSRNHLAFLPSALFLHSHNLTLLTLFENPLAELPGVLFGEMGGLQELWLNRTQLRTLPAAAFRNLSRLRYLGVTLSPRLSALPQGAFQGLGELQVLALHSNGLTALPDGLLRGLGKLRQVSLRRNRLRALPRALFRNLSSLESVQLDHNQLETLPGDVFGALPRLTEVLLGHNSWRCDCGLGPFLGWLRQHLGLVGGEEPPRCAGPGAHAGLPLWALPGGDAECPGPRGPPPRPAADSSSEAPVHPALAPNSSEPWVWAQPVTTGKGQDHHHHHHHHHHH
Description: fluorescent staining of rhGPV in the static fibrin polymerisation assay, confocal microscopy.

No constants are given. Whether binding was seen depends on the method and setting. Some entries that bind do so weakly or less than the wild type.

B1: LUM11 (antibody, V domains shown)
VH: QVQLKESGPGLVQPSQTLSLTCTVSGFSLTSYGVNWVRQPPGKGLEWIAAISSGGSTYYNSSLKSRLSISRDTSKSQVFLKMNSLQTEDTAIYFCTRGYYGYDYDYFDYWGQGVMVTVSS
VL: NIQLTQSPSLLSASVGDRVTLSCKGSQNINNYLAWYQQKLGEAPKLLIYNTNSLQTGIPSRFSGGGSGADYTLTISSLQPEDVATYLCYQYNNGYTFGAGTKMELK
Turning to B1, the binding entry in test [1] is “binds”.

B2: LUM/B (antibody, V domains shown)
VH: EVQLVESGGGLVQPGRSLKLSCAASGFTFSDYNMAWVRQAPKKGLEWVATFIYDGSNTYYGDSVKGRFTVSRDNAKSTLYLQMDSLRSEDTATYYCTTHTWANWFAYWGQGTLVTVSS
VL: NIQLTQSPALLSASVGDRVTLSCRGSQNINNYLAWYQQKLGEAPKLLIYSTNSLQTGIPSRFSGSGSGTDYTLTISSLQPEDVATYFCYQYNNGYTFGPGTKLELK
Take B2: the binding entry in test [2] is “binds”.

Values taken from patent US20260217861A1.
